Results as given in US20200317759A1.
Results are given in words; binding and its absence hold for the method and conditions named. In cells and extracts the contact can be indirect. Some results given as binding are weak or reduced against the parent protein; the word gives no strength.

Biological target: wild-type LukA subunit (S. aureus Newman) (Staphylococcus aureus (Newman)) (UniProt Q2FFA2)
Assay: co-expression in E. coli and co-purification

Row | Substance | binding
1 | LukB K58A mutant subunit (from UniProt P21224 30-338) | binds
2 | LukB K58E mutant subunit (from UniProt P21224 30-338) | binds
3 | LukB R23A mutant subunit (from UniProt P21224 30-338) | binds
4 | LukB R23E mutant subunit (from UniProt P21224 30-338) | binds

Biological target: wild-type LukB subunit (S. aureus Newman) (Staphylococcus aureus (Newman)) (UniProt P21224)
Assay: co-expression in E. coli and co-purification

Row | Substance | binding
5 | LukA D39A mutant subunit (from UniProt Q2FFA2 28-351) | binds
6 | LukA D39R mutant subunit (from UniProt Q2FFA2 28-351) | binds
7 | LukA D197A mutant subunit (from UniProt Q2FFA2 28-351) | binds
8 | LukA L61N mutant subunit (from UniProt Q2FFA2 28-351) | binds
9 | LukA L61Q mutant subunit (from UniProt Q2FFA2 28-351) | binds
10 | LukA L61R mutant subunit (from UniProt Q2FFA2 28-351) | binds
